From the supplement of paper PMC3334620
Whole data set: some 33,000 sequences, median “E-score (-0.5 to 0.5)” near -0.0034, cut for the highest 2% near 0.25. The list shows a part of the results.

Biological target: T1, Yap3 (UniProt P38749)
T1 sequence: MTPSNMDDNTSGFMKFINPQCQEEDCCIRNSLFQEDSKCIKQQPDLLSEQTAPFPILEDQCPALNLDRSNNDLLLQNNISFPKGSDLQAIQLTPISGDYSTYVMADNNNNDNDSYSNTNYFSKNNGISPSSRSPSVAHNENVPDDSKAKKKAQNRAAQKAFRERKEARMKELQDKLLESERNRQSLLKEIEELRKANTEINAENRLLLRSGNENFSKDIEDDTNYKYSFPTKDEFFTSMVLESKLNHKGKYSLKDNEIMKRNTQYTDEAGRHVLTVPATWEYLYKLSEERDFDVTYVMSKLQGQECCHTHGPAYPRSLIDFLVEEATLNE
Assay: PBM E-score (8-mer binding enrichment) (E-score (-0.5 to 0.5)); higher = stronger / more preferred TF binding
Settings: protein concentration: 100 nM; construct: GST-full length
Experimental: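 Universal 'all 10-mer' protein binding microarrays (Agilent AMADID 015681) probed with GST-tagged S. cerevisiae TFs (full-length or DBD) made by in vitro transcription/translation (PURExpress), about 100-200 nM. Bound TF was detected with fluorescent anti-GST. Each ungapped 8-mer (which stands for itself and its reverse complement) is scored by the PBM enrichment score (E-score), a modified Wilcoxon-Mann-Whitney statistic from -0.5 to +0.5, computed with the Universal PBM Analysis Suite. Scale: above 0.35 generally sequence-specific binding.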

Row | Sequence | PBM E-score
1 | ACTAGTAG | 0.107
2 | CTTCGACA | -0.104
3 | AAAGCGTG | 0.0323
4 | AGGGCGAA | -0.0689
5 | CAAACGAC | 0.1
6 | CCAGCCCA | -0.301
7 | CCTGAGGC | -0.294
8 | AGCCCGCG | -0.157
9 | AATGTATG | 0.0768
10 | ATTTTTTA | 0.255
11 | GGGAAACA | 0.0457
12 | CCGAACGA | 0.124
13 | GACCGGAA | -0.0372
14 | CATCCATG | -0.0435
15 | GATCGCCA | 0.0308
16 | TGTCGGAA | -0.0152
17 | CAGTATAG | 0.0993
18 | AAAGATGA | 0.144
19 | CACACGGC | -0.195
20 | ACTAAATC | 0.198
21 | CAAAACGC | 0.0782
22 | CGCGCGCC | 0.107
23 | AAGATGAC | 0.162
24 | CAATCACC | 0.00363
25 | GGAAGTGA | 0.0561

Row | Sequence | PBM E-score
26 | AGATTGAG | 0.0149
27 | GCCTGCGA | -0.175
28 | CGTGTTTA | 0.0506
29 | CGCGGACA | 0.0399
30 | AACGGGGA | -0.116
31 | GCCAAGGA | -0.241
32 | CGCTTTAC | -0.00957
33 | CTGTTAGC | -0.121
34 | GCGGGAGA | -0.127
35 | GCAATTGA | 0.0129
36 | AATGAACT | 0.196
37 | TCATCCAA | 0.135
38 | GAGTCAAC | -0.125
39 | AAGGATAT | 0.125
40 | TGAGTGCA | 0.0109
41 | AAGAAGGA | 0.0372
42 | AATTAGGA | 0.145
43 | AATTTTTA | 0.252
44 | AACACCCG | 0.0846
45 | ACACCGCA | -0.00559
46 | CCCGCAAG | -0.276
47 | CCAAGGCG | -0.11
48 | ATAAGTAC | 0.197
49 | ACAGAGGC | -0.134
50 | CCGCAGAC | -0.19

Row | Sequence | PBM E-score
51 | CGTTTTTC | 0.0598
52 | GACACCGC | -0.169
53 | ATTAAGGG | -0.209
54 | ACACTCAG | -0.0268
55 | AGGAAATA | 0.254
56 | CTTCACCA | -0.0899
57 | AAAAAAGG | 0.121
58 | CTGAAATC | 0.0111
59 | CTCTAGGA | -0.233
60 | ACAGTGTC | -0.099
61 | TGTCAAAA | 0.0917
62 | ATTTTGGA | 0.208
63 | CACTTCCC | -0.0568
64 | AATTGTAT | 0.0992
65 | CAGGACAA | 0.143
66 | GAAAATCA | 0.132
67 | CCCACGTA | 0.0159
68 | AGTCATGC | -0.0461
69 | CCGTACGA | -0.0152
70 | CCGGCCGC | -0.21
71 | AGGAACCA | -0.0185
72 | TCTAACAA | 0.0986
73 | TCCCGGCA | -0.21
74 | CCAATCAC | -0.00032
75 | CAAGAAAG | 0.0675

Row | Sequence | PBM E-score
76 | CTTGTATA | 0.127
77 | CCACCCCC | -0.309
78 | GTCTGTGA | 0.0713
79 | AGTACTGC | -0.0168
80 | ATGTGCTG | 0.0962
81 | AGCCCTGA | -0.245
82 | AGGAATCA | 0.137
83 | GTTGTGTA | 0.173
84 | CCTTTGCG | -0.00088
85 | AATTCTAT | 0.0936
86 | GGCCCGTA | -0.172
87 | ACTGAATC | -0.0833
88 | GAGTCGTA | 0.0658
89 | CCAATGAC | -0.0507
90 | TAACCCCA | -0.133
91 | GCATCGAC | -0.0451
92 | CGGCCACC | -0.222
93 | CTTCCGAA | -0.108
94 | AGGACACA | 0.0983
95 | GATGACGA | 0.201
96 | TCCTAAAA | -0.115
97 | CACCAGAA | -0.106
98 | GATCGTTA | 0.055
99 | CCAGGCGA | -0.29
100 | ATCAGCTG | 0.195

Row | Sequence | PBM E-score
101 | ATACCAAC | 0.202
102 | AATTGCTG | 0.15
103 | ACACGGCT | 0.0307
104 | ATGCGGCC | -0.143
105 | GTCAGACA | -0.015
106 | GGAGACGA | 0.117
107 | CCCTTGCA | -0.162
108 | CATACGCG | 0.0267
109 | GCCATGAA | -0.0625
110 | ATATTTAG | 0.194
111 | ATAGCATC | 0.0327
112 | AATTTCGC | 0.189
113 | ATACGGCG | 0.105
114 | GATCCGGA | -0.0561
115 | TTAGGAAA | 0.0906
116 | AAGCTCCA | -0.0626
117 | ACCGGCCC | -0.398
118 | CTAGAAGA | -0.0684
119 | CGCCAGAA | -0.0765
120 | CATTCCAA | 0.0267
121 | ATACACAG | 0.163
122 | GGGTTATA | -0.173
123 | CATAAAGC | -0.0485
124 | TGGGGCAA | -0.0325
125 | AGGAATAC | 0.0328

Row | Sequence | PBM E-score
126 | GCGGTCGA | 0.0757
127 | CGGGTATC | -0.0443
128 | ACATAAAG | 0.113
129 | AGCAGCCC | -0.309
130 | GGGCTCTA | -0.147
131 | TATGCAGA | 0.0525
132 | CATTAAGA | 0.0516
133 | CGATATGA | -0.0173
134 | GTAAGTGA | 0.142
135 | ACTTGCTA | -0.0697
136 | ACAGGTTC | -0.0416
137 | AAGTAGGA | 0.0486
138 | CGATACCG | -0.00692
139 | CCCATCGA | -0.0875
140 | GGTCGGAA | -0.0211
141 | AGGACGTA | -0.0964
142 | AGCCTGAG | -0.228
143 | CAGTTTTC | 0.206
144 | AGACAACC | 0.121
145 | AATGTCAA | 0.0174
146 | ATGCACAG | -0.14
147 | CAGTCAAC | -0.0224
148 | AAAACAGG | 0.00513
149 | AGACTCGC | -0.169
150 | ACGGGGCA | -0.283

Rewritten as a markdown table: entries from further up

| Row | Sequence | PBM E-score |
| --- | --- | --- |
| 129 | AGCAGCCC | -0.309 |
| 131 | TATGCAGA | 0.0525 |
| 137 | AAGTAGGA | 0.0486 |
| 148 | AAAACAGG | 0.00513 |

Next part:

Row | Sequence | PBM E-score
151 | AATGCTGG | 0.0512
152 | AAGATACG | -0.018
153 | CGCATAAG | 0.145
154 | CATACTCC | -0.0395
155 | AGTTGCTG | -0.0839
156 | GCTGAAAC | -0.0804
157 | ATGAGTCG | 0.0895
158 | GACAGCTA | -0.119
159 | AAACCAAG | 0.107
160 | ATTCTGGG | 0.0207
161 | CCCGCGGA | 0.115
162 | CCTTACGC | 0.162
163 | ACCCCCGT | -0.333
164 | CTCCTCCC | -0.358
165 | AATTGCTA | 0.121
166 | CATATTAC | 0.282
167 | AATTACTA | 0.325
168 | AGCAGGTA | -0.02
169 | GTATAGAC | 0.0787
170 | CCTATGTA | 0.0458
171 | GCAGATGA | -0.0542
172 | CGGCGCTA | -0.16
173 | ACCAAGGC | -0.116
174 | CGCAAACG | 0.0764
175 | CAAACCGG | -0.0147

Row | Sequence | PBM E-score
176 | ATTATCAG | 0.0829
177 | AGATGTAC | 0.00924
178 | ATTAAATA | 0.268
179 | ATACAGGC | 0.0169
180 | CCTGCAAC | -0.0602
181 | AGGGTAAC | -0.00638
182 | CGATGAGA | 0.0779
183 | GGGCTCAC | -0.346
184 | ATCACACC | -0.00654
185 | CATGTGGA | -0.0243
186 | CTCTACAC | 0.00564
187 | ACCAGGTC | -0.0571
188 | AGACGAAC | 0.164
189 | AAGGTCCC | -0.0432
190 | ACGGTAAC | 0.0997
191 | GCTCTGAA | -0.14
192 | ATCCGGGA | -0.067
193 | ATAGTCAC | 0.124
194 | AGTGTCCG | -0.0603
195 | AGGATATC | 0.026
196 | CGATTCAA | -0.0579
197 | GCCACAAA | 0.0416
198 | ACGAATCT | 0.0139
199 | CAGACCGA | -0.0599
200 | CTTGATCA | 0.0254

From no. 184 to 187, copied from above:
Row | Sequence | PBM E-score
184 | ATCACACC | -0.00654
185 | CATGTGGA | -0.0243
186 | CTCTACAC | 0.00564
187 | ACCAGGTC | -0.0571

(cont.)

Row | Sequence | PBM E-score
201 | AAATCCTA | 0.102
202 | ACGCCTCC | -0.238
203 | ATCCCCAG | -0.25
204 | AGAACCGG | 0.0285
205 | CTCACAGC | -0.0856
206 | ACCAATTG | -0.0264
207 | ATCTGCGG | -0.0331
208 | CACCGAAA | 0.0611
209 | ATCTGAAT | 0.135
210 | CCCGGCGC | -0.325
211 | CCGTTGCC | -0.26
212 | AGCCGTTG | 0.0468
213 | AGGGGGAG | -0.217
214 | ACTGAAGA | -0.0543
215 | AGAGATTA | 0.12
216 | CATAGGAG | 0.053
217 | ACTAACCA | 0.0355
218 | GCGCCTAA | 0.117
219 | ACCCGACG | -0.103

Looked up above.
Under PBM E-score, ATCTGAAT shows 0.135
Under PBM E-score, AGAGATTA shows 0.12
Under PBM E-score, CTCACAGC shows -0.0856
Under PBM E-score, CCCGGCGC shows -0.325
Under PBM E-score, CACCGAAA shows 0.0611
